Assay results as given in PMC8238200.
These are yes or no findings as the source states them, for the method shown.

By UniProt entry, the sequences of proteins in these tests, tags left out. Residues count along the entry.
UniProt B7UNX3: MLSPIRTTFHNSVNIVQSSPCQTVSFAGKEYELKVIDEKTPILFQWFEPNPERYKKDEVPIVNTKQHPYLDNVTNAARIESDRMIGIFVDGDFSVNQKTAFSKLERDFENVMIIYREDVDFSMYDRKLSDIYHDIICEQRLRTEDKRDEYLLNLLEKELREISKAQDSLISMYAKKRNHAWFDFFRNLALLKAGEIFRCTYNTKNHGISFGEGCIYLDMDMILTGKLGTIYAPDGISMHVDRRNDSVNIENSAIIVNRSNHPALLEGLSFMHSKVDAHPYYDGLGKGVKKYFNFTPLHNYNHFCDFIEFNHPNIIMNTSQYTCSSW
UniProt Q13158, residues 97-181: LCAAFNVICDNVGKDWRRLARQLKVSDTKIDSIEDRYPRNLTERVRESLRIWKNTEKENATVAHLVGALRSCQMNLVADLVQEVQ
UniProt P25445, residues 230-314: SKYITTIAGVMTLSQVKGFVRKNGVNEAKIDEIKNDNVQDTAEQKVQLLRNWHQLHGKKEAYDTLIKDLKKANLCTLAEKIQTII

Target: NleB2 from EPEC E2348/69 (pGBKT7-NleB2) (enteropathogenic Escherichia coli O127:H6 strain E2348/69) (UniProt B7UNX3)
Experiment: two-hybrid; pairwise yeast two-hybrid, data not shown

Death domain of FADD (from UniProt Q13158 97-181) (domain or fragment)
binding: no binding

Death domain of FAS (from UniProt P25445 230-314) (domain or fragment)
binding: no binding

B1: Death domain of TRADD (domain or fragment, UniProt Q15628 179-289)
chain: PLQPPVPSLSEVKPPPPPPPAQTFLFQGQPVVNRPLSLKDQQTFARSVGLKWRKVGRSLQRGCRALRDPALDSLAYEYEREGLYEQAFQLLRRFVQAEGRRATLQRLVEAL
binding: no binding
